These are yes or no findings as the source states them, for the method shown. Binding seen in cells or lysates may run through a third protein. For some assays here: A result given as binding can be weak or reduced; the word gives no strength. For some assays here: Tags and fused reporters may be left off the sequences shown.
Assays:
[1] = target: cohesin subunit stromalin (SA) (Drosophila (endogenous in embryos and S2 cells)); assay: co-IP; IP of SA or SMC1 from S2 cell extracts; cells mock-treated or depleted of NAP1 and/or PP2A by RNAi, with or without colchicine; immunoblot
[2] = target: cohesin subunit stromalin (SA) (Drosophila (endogenous in embryos and S2 cells)); assay: co-IP; IP of SA, NAP1 or PP2A from Drosophila embryo nuclear extract; washes with 600 mM KCl, 0.1% NP40; immunoblot; mock IP with pre-immune serum
[3] = target: cohesin subunit stromalin (SA) (Drosophila (endogenous in embryos and S2 cells)); assay: condition: only S2 cell extracts denatured by 6M Urea; co-IP; denaturing IP of SA: S2 cells lysed in 6M Urea, 150 mM NaCl, 5 mM DTT, 50 mM Tris pH 7.6, step-wise dialysis to 2M urea, then HEMG/400; immunoblot
[4] = target: cohesin subunit stromalin (SA) (Drosophila (endogenous in embryos and S2 cells)); assay: co-IP; IPs of NAP1 and SA from pooled high molecular weight S-300 fractions 12-14 (about 1.5 MDa) of embryo nuclear extract; immunoblot
[5] = target: cohesin subunit stromalin (SA) (Drosophila (endogenous in embryos and S2 cells)); assay: co-IP; IP of SA or PP2A from Drosophila embryo nuclear extract; lower stringency washes, 200 mM KCl, 0.1% NP40; immunoblot

B1: histone chaperone NAP1 (protein, UniProt Q9W1G7 1-370)
chain: MDAPAEGHVDPESCNEIEDEKSGSDCQSMPAYMNSVMRRQYLQQMVKMLPAPVQNRIVFLKNLQLQHLNIEAQFFEDVYKLEQKYQVQYQPLFDKRREIIEGKVDPAEEKPQWKEPESSTDNEADAEHFREALSSLKSIPKDAKGIPGFWLTVFRNTAIMSEMVQPHDEPAIRKLIDISIKYDNGHSYTLEFHFDKNEYFSNSVLTKQYVLKSTVDPNDPFAFEGPEIYKCTGCTINWEKKMNLTVKTIRKKQKHKERGAVRTIVKQVPTDSFFNFFSPPEVPSDQEEVDDDSQQILATDFEIGHFLRARIIPKAVLYYTGDIVDDEDDEDEEEYDENEEDEYDDDDAPPPKGPKSAGIKKQSPNDCPNQ
With B1 the binding [1] was “binds”, the binding [2] was “binds” and the binding [3] was “no binding”.

B2: cohesin subunit SMC1 (protein, UniProt Q9VCD8 1-1238)
chain: MTEEDDDVAQRVATAPVRKPDDETAFLEYIEMENFKSYRGHIVVGPLKQFNAVIGPNGSGKSNFMDAISFVMGEKTSSLRVKRLNDLIHGSSIGKPVSRSCYVTAKFVLNEERHMDFQRAVIGGSSEYRINGESVSSSTYLNKLEKIGINVKAKNFLVFQGAVENIAMKTPKERTALFEEISGSGLLKDDYNRLKQEMIVAEEETQFTYQKKKGIAAERKEAKHEKMEADRYTRLQNEYNEKQVEYQLFRLFHVERDIRKFTSDLEVRQQEVKAVEQRKEAADEILREKKKDAGKITRDLAKIDQEIREFETQMNKRRPLYIKAKEKVTHCKKKLISLQKTLETAREADNAHQSDIRKLEKQLADVEALKKRFEDEIENESQRRGKSVNMEEGLVQEYDRLKQEAEATATQYRSELDSVNREQKSEQDTLDGETNRRASVEESFKKLTLQREEAVKRRDKLMDHIKSSQAALEEQNRIKDELRRDVGTSKEKIAEKQRELEDVRDQLGDAKSDKHEDARRKKKQEVVELFKKQVPGVYDRMINMCQPTHKRYNVAVTKVLGKFMEAIIVDTEKTARHCIQILKEQMLEVETFLPLDYLQVKPLKERLRNISDPRNVRLVFDVLKFEPQEIERAVLFATGNALVCETPEDAMKVAYEIDRSRFDALALDGTFYQKSGLISGGSHDLARKAKRWDEKHMAQLKMQKERLQEELKELVKKSRKQSELATVESQIKGLENRLKYSMVDLESSKKSISQYDNQLQQVQSQLDEFGPKILEIERRMQNREEHIQEIKENMNNVEDKVYASFCRRLGVKNIRQYEERELVMQQERARKRAEFEQQIDSINSQLDFEKQKDTKKNVERWERSVQDEEDALEGLKLAEARYLKEIDEDKEKMEKFKQDKQAKKQAVDDMEEDISKARKDVANLAKEIHNVGSHLSAVESKIEAKKNERQNILLQAKTDCIVVPLLRGSLDDAVRQSDPDVPSTSAAMENIIEVDYSSLPREYTKLKDDSAFKKTHEMLQKDLQSKLDVLERIQTPNMKALQKLDAVTEKVQSTNEEFENARKKAKRAKAAFERVKNERSSRFVACCQHISDAIDGIYKKLARNEAAQAYIGPDNPEEPYLDGINYNCVAPGKRFQPMNNLSGGEKTIAALALLFSTHSFHPAPFFVLDEIDAALDNTNIGKVASYIRDHTTNLQTIVISLKEEFYGHADALVGITPGEGDCLVSNVYIMDLTTFEDT
In the case of B2, the binding [4] is reported as “binds” and the binding [3] is reported as “no binding”.

B3: histone chaperone ASF1 (protein, UniProt Q9V464 1-218)
chain: MAKVHITNVVVLDNPSSFFNPFQFELTFECIEELKEDLEWKMIYVGSAESEEHDQVLDTIYVGPVPEGRHIFVFQADPPDVSKIPEPDAVGVTIVLLTCSYRGQEFVRVGYYVNNDYADPEMRENPPTKPLFEKLTRNILASKPRVTRFKINWDYGHINGNGNGVENGHQDEMATDGPSTSEAASAVIHPEDDNSLAMPMENGIKALNENSNSLAMEC
B3 was tested, and the binding [2] was “no binding”.

B4: MeiS332 (protein, UniProt Q24141 1-401)
chain: MGSKVEQQYKLLNAELMDQVQKQRLEIGEYRKRVISLEREIMDIREEHVLQNHRQRMENISIVRSLMLSLNVDSDSLAVRQEPAPAAQINRPSGPRRSSREICKDMRRTCALARTTRPISPRRSSSVTSTVSSTSRRSSAEVQSEVVTTRIPEDRRANKPTPPPRRPAELVFDEDDSDDDFDEAVSPVEETQTEQNEENNRLFSIIEENGSEGESTDSSSSCEAIYCDTTFESSPPNAQVTVTPSGRALREVDTNIPVAVSLSRGKETGKGSWLAISVAVEDSPQEPSIQCPRLAVTRPSQSSGIFPDVNGLTPRRSLFNGIGKMAGSTSTPKSFLVEEMPSIRTRSRTAANKKSENTDMSSSFCNNSARPSRSCRPTSLVEPSLKNKLRNGSKGKAKAKK
With B4 the binding [5] was “no binding” and the binding [2] was “no binding”.
